Test results taken from patent US20120239131A1, “METHODS AND APPARATUS FOR TREATMENT OF ANEURYSMAL TISSUE” (Medtronic Vascular, Inc., priority 2011, published 2012).
At least one structure is not confirmed: it was looked up by name or label, or the drawing left a doubt.

Test system: AAA
Assay: Aortic diameter by ultrasonography, ApoE−/−+Ang II AAA model
Type: in vivo, ApoE−/− mice
Settings: pretreatment 1 week before Ang II infusion, followed to 28 days; versus control and doxycycline
Text: The ApoE^−/−+Ang II AAA model is well established and supported by current scientific literature. Mice genetically predisposed to hypercholesterolemia develop aneurysms when treated with angiotensin II. Aneurysms generally develop within the first week after pump implantation and share many important pathologic characteristics with human AAA disease. ApoE−/− mice used in this study were divided into different pretreatment groups: 1) Fluvastatin-MF; 2) Doxycycline-MD; 3) Irbesartan-MI; 4) Telmisartan-MT; 5) Control (water) and fed medicated chow or medicated drinking water 1 week prior to pump implantation. AngII (1000 ng·kg^−1 of body weight·min^−1) was infused subcutaneously via Alzet mini-osmotic pumps for 28 days. All mice were maintained on the medicated chow (MI & MT) or medicated drinking water (MF & MD) treatments which were delivered daily for a total of 28 days following pump implantation. In order to determine the effect of the various treatments on the progressive enlargement of the experimental AAAs the mice were followed with high frequency trans-abdominal ultrasound. Maximum aortic diameter was measured and recorded prior to pump implantation and then at 3, 7, 14, 21, and 28 days. […] Plasma drug concentrations of experimental compounds were quantified on the day of sacrifice using high performance liquid chromatography (HPLC).

C[C@H]1c2cccc(O)c2C(=O)C2=C(O)[C@]3(O)C(=O)C(C(N)=O)=C(O)[C@@H](N(C)C)[C@@H]3[C@@H](O)[C@@H]21 [Doxycycline]
Inhibition of aneurysm development/growth (aortic diameter): did not inhibit AAA growth
